{"source": "PubChem BioAssay AID720505 – Drosophila RNAi Screening Center, 2013", "purpose": "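Fly regulators or components of the CRAC channel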 (primary screen)", "cells": "Drosophila S2R+ cells", "reagents": "long dsRNA against Drosophila genes", "treatment": "thapsigargin (2 µM) in calcium-free buffer to empty internal stores, then 2 mM calcium added back", "measured": "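Fluo-4 signal in 384-well plates read on a FLIPR after thapsigargin (2 µM, calcium-free) store depletion and 2 mM calcium add-back; unnormalised mean endpoint per well; screen run twice, selected wells retested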", "reading the numbers": "calcium signal and retest calcium signal: higher = more calcium entry after store depletion", "active means": "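Knock-downs counted as hits when calcium entry dropped relative to STIM1 positive and Rho1 negative controls present on each plate; roughly 1500 genes called, with reductions of differing size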", "calls": "active = called as lowering calcium entry; inactive = not called", "note": "The deposit covers about 20,000 reagents; this is an unselected part of those that have a named target and a result. Over the whole deposit, about 2,100 (10%) are marked active. 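Raw plate signals without normalisation; calls rest on control-based scores that were not deposited; replicate 2 separates called from uncalled poorly.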 A number with no mark means an inactive call. Reagent sequences are not shown. Not stated in the record: the amount of reagent, the time to read-out."}
{"predicted target":"Atx-1 (Ataxin 1)","DRSC id":"DRSC18365","calcium signal, replicate 1":227,"calcium signal, replicate 2":160}
{"predicted target":"CG13995","DRSC id":"DRSC00907","calcium signal, replicate 1":121,"calcium signal, replicate 2":118,"retest calcium signal, replicate 1":8951,"retest calcium signal, replicate 2":181}
{"predicted target":"CG13995","DRSC id":"DRSC02327","calcium signal, replicate 1":156,"calcium signal, replicate 2":109}
{"predicted target":"CG13995","DRSC id":"DRSC22767","calcium signal, replicate 1":109,"calcium signal, replicate 2":188}
{"predicted target":"CG32801","DRSC id":"DRSC17964","calcium signal, replicate 1":109,"calcium signal, replicate 2":165}
{"predicted target":"CG12118","DRSC id":"DRSC17813","calcium signal, replicate 1":96.6,"calcium signal, replicate 2":97}
{"predicted target":"CG31872","DRSC id":"DRSC02568","calcium signal, replicate 1":193,"calcium signal, replicate 2":140}
{"predicted target":"CG31872","DRSC id":"DRSC02572","calcium signal, replicate 1":189,"calcium signal, replicate 2":159}
{"predicted target":"CG14803","DRSC id":"DRSC18556","calcium signal, replicate 1":74.8,"calcium signal, replicate 2":114}
{"predicted target":"CG9287","DRSC id":"DRSC03186","calcium signal, replicate 1":191,"calcium signal, replicate 2":143,"retest calcium signal, replicate 1":95.1,"retest calcium signal, replicate 2":102}
{"predicted target":"CG9287","DRSC id":"DRSC22790","calcium signal, replicate 1":86.6,"calcium signal, replicate 2":98.8}
{"predicted target":"Lsm12a (LSM12 homolog a)","DRSC id":"DRSC19702","calcium signal, replicate 1":114,"calcium signal, replicate 2":91.9}

A portion from the list above:
{"predicted target":"Atx-1 (Ataxin 1)","DRSC id":"DRSC18365","calcium signal, replicate 1":227,"calcium signal, replicate 2":160}
{"predicted target":"CG13995","DRSC id":"DRSC00907","calcium signal, replicate 1":121,"calcium signal, replicate 2":118,"retest calcium signal, replicate 1":8951,"retest calcium signal, replicate 2":181}
